Measured values reported in publication PMC7473639, “Functionally distinct roles for T and Tbx6 during mouse development”.
A weaker result is weaker than the reference pair of the same experiment. Protein sequences can lack the tags named with them.

Molecular target: T1, T-DBD (Brachyury T-domain) (mouse) (UniProt P20293)
T1 sequence (looked up): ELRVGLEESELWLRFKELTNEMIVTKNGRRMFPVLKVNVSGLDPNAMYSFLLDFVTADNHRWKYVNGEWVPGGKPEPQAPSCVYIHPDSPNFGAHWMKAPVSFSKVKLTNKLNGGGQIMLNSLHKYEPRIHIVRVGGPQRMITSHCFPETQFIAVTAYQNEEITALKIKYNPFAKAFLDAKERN
Experiment: EMSA
Conditions: shifted less effectively, Kd not measurable, protein concentration limiting; 25 mM HEPES pH 7.4, 75 mM NaCl, 1 mM DTT, 0.25 mM EDTA, 0.1% NP-40, 1 mM MgCl2, 10% glycerol, 10 µg/ml BSA, 0.1 mg/ml poly dI-dC; room temperature, 20 min; recombinant protein; residues 41-224; protein details: N-terminal His (pET151/D-TOPO), removed by TEV; label: 32P 5' end label

**Q.** Does “TCACTGTAGGTGTTGCTGTCCTGT (double strand) [Dll1 BS1]” bind?
**A.** binds more weakly
